Measurements from PubChem BioAssay AID2685 (National Center for Advancing Translational Sciences (NCATS), 2010).
This is one part of the list. Further columns of the screen follow, without active or inactive calls. The list favours compounds with an active or inconclusive main result. The note in brackets gives the kind of curve behind each potency; many fits are weak.

Assay: qHTS Assay for Lipid Storage Modulators in Drosophila S3 Cells;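 on cell number change: cells counted by Cell Tracker Red CMTPX staining in the red channel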
Settings: BODIPY lipid droplet fluorescence, 18-24 h; for cell number change: measured here: cell count max response, cells fed with added oleic acid
Outline: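 Drosophila S3 cells loaded with oleic acid (400 uM, as added) and compounds at several concentrations; lipid droplets imaged by 488-nm laser-scanning cytometry, 500–530 nm intensity and object ratio to cell channel. Percent activity normalized to 20 uM Triacsin C.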

[1] = measured here: lipid fluorescence (Fed channel) AC50, cells fed with added oleic acid
[2] = measured here: cell number channel AC50, cells fed with added oleic acid

CC(=O)C1=C(C)N(c2ccccc2)C(=O)C1(NS(=O)(=O)c1ccc(N)cc1)C(F)(F)F (centres undefined)
cell number change: -18.1% | AC50 [1]: 0.103 µM [falling, full curve, poor fit]

O=C(C1=C(O)C(=O)N(CCN2CCOCC2)C1c1cccnc1)c1cc2ccccc2o1 (centres undefined)
cell number change: -4.27% | AC50 [1]: 6.51 µM [falling, single point]

NC(=O)COC(=O)CNC(=O)c1cc(Cl)cc([N+](=O)[O-])c1
cell number change: -34.7% | AC50 [2]: 0.00517 µM [falling, full curve, poor fit] | AC50 [1]: 0.00651 µM [falling, full curve, poor fit]

Cc1ccc(NS(=O)(=O)c2ccc(CCC(=O)NCCO)cc2)cc1
cell number change: 17.5% | AC50 [1]: 18.4 µM [falling, partial curve]

Cc1cccc(C)c1OCc1cc(C(=O)NCC2CCCCC2)no1
cell number change: -8.78%

O=C1CC(c2ccc(O)cc2)Oc2ccccc21 (centres undefined)
cell number change: 26% | AC50 [1]: 29.1 µM [rising, single point]

Cc1cc2c(c(=O)n1C)C(C(C)C)C(C#N)=C(N)O2 (centres undefined)
cell number change: 18.8% | AC50 [1]: 0.651 µM [falling, single point]

O=C(NCCCCc1ccccc1)c1cc([N+](=O)[O-])cc([N+](=O)[O-])c1
cell number change: -4.91%

CC1(C)CC(CCC(=O)NC(=S)Nc2ccccc2Cl)C(=O)O1 (centres undefined)
cell number change: 23.9% | AC50 [2]: 0.146 µM [rising, full curve, poor fit]

Clc1ccc(-c2cc(C3CCNCC3)[nH]n2)cc1
AC50 [1]: 25.9 µM [rising, partial curve]

Cc1ccc(-n2c(=O)cc(N3CCN(Cc4ccccc4)CC3)[nH]c2=O)cc1
cell number change: -29.8% | AC50 [1]: 20.6 µM [falling, single point]

Cc1cccc2cc3cccc(C)c3nc12
cell number change: -24.2% | AC50 [1]: 1.64 µM [falling, full curve]

CC(=O)Nc1ccc(/C(C)=N/NC(=O)C2CC2c2ccccc2)cc1 (centres undefined)
cell number change: 32.7% | AC50 [2]: 25.9 µM [rising, single point] | AC50 [1]: 0.411 µM [rising, partial curve]

CCOc1ccc(S(=O)(=O)N(CC)CC(=O)NCc2cccnc2)cc1C
cell number change: 20.1% | AC50 [1]: 1.46 µM [rising, partial curve]

CSc1nc(C)cc(-n2cc(F)c(=O)[nH]c2=O)n1
cell number change: 0.881% | AC50 [1]: 3.66 µM [falling, single point]

CCn1cc(C(=O)NCCCN2CCCC(C)C2)c(=O)c2cc(S(=O)(=O)N3CCOCC3)ccc21 (centres undefined)
cell number change: 16.5% | AC50 [1]: 29.1 µM [rising, single point]

Cc1cccc(C)c1OCC(=O)Nn1c(C)nc2ccccc2c1=O
cell number change: 17.5% | AC50 [1]: 1.3 µM [rising, full curve]

CC1CCC(NC(=O)C2CCC(CNS(=O)(=O)c3cccc4nsnc34)CC2)CC1 (centres undefined)
cell number change: -36.2% | AC50 [2]: 0.731 µM [falling, full curve]

CSc1nsc2nc(=O)c(/C=C3\C=Nc4ccccc43)c(N)n12
cell number change: 8.53% | AC50 [2]: 3.66 µM [rising, single point]

Cn1c(=O)c(C(=O)NCCc2ccccc2)c(O)c2ccccc21
cell number change: -19.8% | AC50 [1]: 0.58 µM [falling, single point]

C/C(=N\NC(=O)c1nn(C)c(C)c1Br)c1cccc(NC(=O)c2ccc(F)cc2)c1
AC50 [1]: 20.6 µM [rising, single point]

O=C1CSC(c2ccncc2)N1Cc1ccccc1 (centres undefined)
AC50 [1]: 0.092 µM [falling, single point]

COc1ccc(S(=O)(=O)N(C)C)cc1NC(=O)CSc1nnc(-c2cccnc2)o1
AC50 [1]: 0.58 µM [falling, single point]

O=C(NNC(=O)c1cccnc1SCc1cccc([N+](=O)[O-])c1)c1cccnc1
cell number change: 3.56%

O=C(CCCN1C(=O)c2cccc3cccc(c23)C1=O)N1CCN(c2ccccn2)CC1
cell number change: -1.65%

CCOc1ccccc1C(=O)NC1CCN(Cc2nnnn2C2CCCC2)CC1
cell number change: -1.82% | AC50 [1]: 6.51 µM [rising, single point]

CCOc1ccc(C(=O)Nc2ccc(NC(=O)c3ccco3)c(Cl)c2)cc1Br
AC50 [2]: 0.164 µM [rising, full curve, poor fit]

Cc1ccc(NC(=S)NCc2ccccc2)c(C)c1
cell number change: -2.03% | AC50 [1]: 23.1 µM [falling, single point]

CCOc1ccc(CCN2CN(C3CCCCC3)CNC2=S)cc1OCC
cell number change: -35.8% | AC50 [2]: 0.184 µM [falling, full curve, poor fit]

CN1CCN(C(=S)Nc2cc([N+](=O)[O-])ccc2Cl)CC1
AC50 [2]: 2.91 µM [rising, partial curve] | AC50 [1]: 0.00461 µM [falling, full curve, poor fit]

O=C1CSC(c2cccnc2)N1c1cccc(Cl)c1 (centres undefined)
cell number change: 3.3% | AC50 [2]: 0.517 µM [falling, single point]

Cc1ccc(COc2ccc3c(c2)OCO3)cc1
cell number change: 9.66% | AC50 [2]: 0.411 µM [rising, partial curve, poor fit] | AC50 [1]: 29.1 µM [rising, single point]

Cc1ccc(C)c(S(=O)(=O)N2CCN(C(C(=O)Nc3ccc(F)cc3)c3ccccc3)CC2)c1 (centres undefined)
cell number change: 33.3% | AC50 [2]: 4.11 µM [falling, partial curve]

CCN(CC)c1ccc(NC(=O)/C=C\c2ccccc2Cl)cc1
AC50 [2]: 2.59 µM [rising, partial curve] | AC50 [1]: 2.31 µM [rising, partial curve]

Cc1ccc(O)c(CNc2ccccn2)c1
cell number change: 75.5% | AC50 [2]: 18.4 µM [rising, single point] | AC50 [1]: 0.58 µM [falling, partial curve]

COc1ccc(-c2csc(NC(=O)C3CCN(C(=O)c4ccc(F)cc4)CC3)n2)cc1OC
cell number change: -50% | AC50 [2]: 29.1 µM [falling, single point]

O=C(O)C1(c2ccccc2)CCN(S(=O)(=O)c2ccc(F)c(F)c2)CC1
cell number change: 9.91% | AC50 [1]: 6.51 µM [rising, single point]

COc1ccc(NC(=O)CSc2nnc(NC(=O)c3ccco3)s2)cc1
cell number change: 12.8% | AC50 [2]: 1.16 µM [rising, single point] | AC50 [1]: 1.16 µM [rising, single point]

O=C(N1CCOCC1)N1CCC(n2nnc3cc(F)ccc32)CC1
cell number change: -64.8% | AC50 [2]: 20.6 µM [falling, partial curve, poor fit] | AC50 [1]: 20.6 µM [falling, partial curve]

Fc1ccc(Nc2nc3ccccc3s2)cc1
cell number change: 14.5%

O/N=C/c1cn(-c2ccccc2)nn1
cell number change: -19.9%

CC(CO)NCC12CC3CC(CC(C3)C1)C2 (centres undefined)
cell number change: -0.955%

CCc1nnc(SC(C)C(=O)Nc2nccs2)n1C (centres undefined)
cell number change: 11.8%

COc1ccc(CC(=O)N/N=C(\C)CC(=O)Nc2ccc(N(C)C)cc2)cc1
cell number change: 20.9%

COc1ccc2[nH]c(=O)c(CN(Cc3cccs3)S(=O)(=O)c3cccc4nsnc34)cc2c1
AC50 [2]: 4.11 µM [rising, single point] | AC50 [1]: 6.51 µM [rising, single point]

COc1ccc2cc(C(=O)C3CCCN(C(=O)CCc4ccccn4)C3)ccc2c1 (centres undefined)
cell number change: -22.7% | AC50 [1]: 29.1 µM [falling, single point]

O=C1CCCN1CCCNc1ncnc2sccc12
cell number change: 4.47% | AC50 [1]: 14.6 µM [falling, partial curve]

COc1ccc(S(=O)(=O)NCC2CCC(C(=O)NCC(OC)OC)CC2)cc1 (centres undefined)
cell number change: -30.4% | AC50 [1]: 29.1 µM [falling, single point]

CCC(=O)N1CCN(c2ccccc2NC(=O)c2ccc(OC)c(Cl)c2)CC1
cell number change: 85.1% | AC50 [2]: 4.61 µM [rising, partial curve] | AC50 [1]: 20.6 µM [rising, partial curve]

CCNc1nc(NCC)nc(OCCNS(=O)(=O)c2cc(C)ccc2C)n1
AC50 [2]: 0.184 µM [rising, full curve, poor fit]

CCN(CC)C(=O)COC(=O)C1CCN(S(=O)(=O)c2ccc3c(c2)OCCO3)CC1
cell number change: 3.11% | AC50 [2]: 0.206 µM [falling, full curve, poor fit] | AC50 [1]: 6.51 µM [falling, single point]

Cc1nn(CCCC(=O)N2CCN(c3ccc(F)cc3)CC2)c(C)c1[N+](=O)[O-]
cell number change: 36.6% | AC50 [2]: 32.6 µM [rising, single point]

CC(=O)Nc1ccc(NC(=O)Oc2ccccc2)cc1
cell number change: -15.1%

COc1ccc(C2C(C#N)=C(N)N(c3ccccc3)C3=C2C(=O)CCC3)cc1Cn1cc([N+](=O)[O-])cn1 (centres undefined)
cell number change: -35.4% | AC50 [2]: 29.1 µM [falling, single point] | AC50 [1]: 29.1 µM [falling, single point]

COc1ccc(S(=O)(=O)N2CCCCC2)cc1NC(=O)c1ccc(OC)c(OC)c1
cell number change: 51.4%

COC(=O)C1=C(C)Nc2c(c(=O)n(C)c(=O)n2C)C1c1ccc(C)cc1 (centres undefined)
cell number change: 27.5%

Cc1csc(NC(=O)CSc2nnc(Cn3c(=O)sc4ccccc43)n2-c2ccccc2)n1
cell number change: -17.2% | AC50 [1]: 23.1 µM [falling, single point]

O=C1c2ccccc2N2C(=O)c3ccccc3[C@H]2N1c1ccccc1
cell number change: -2.35%

CC1(C)CC(=O)C(C(C2=C(O)CC(C)(C)CC2=O)c2ccc(Br)s2)C(=O)C1 (centres undefined)
cell number change: -37.5% | AC50 [2]: 32.6 µM [falling, single point]

Cc1cc2ccccc2c(=O)n1CC(=O)NCC(=O)N1CCN(c2ccccc2F)CC1
cell number change: -25% | AC50 [2]: 0.0058 µM [falling, full curve, poor fit]

COc1ccc(C(=O)n2c(N)nc3ccccc32)cc1OC
cell number change: -9.85%

Cc1onc(C(=O)N2CCN(Cc3ccccc3)CC2)c1[N+](=O)[O-]
cell number change: 40.2% | AC50 [2]: 29.1 µM [rising, single point] | AC50 [1]: 0.651 µM [falling, full curve]
